The record followed here is publication PMC12463075.

Protein sequences, listed by entry. Tags and fused reporters are not part of them.
UniProt P43490: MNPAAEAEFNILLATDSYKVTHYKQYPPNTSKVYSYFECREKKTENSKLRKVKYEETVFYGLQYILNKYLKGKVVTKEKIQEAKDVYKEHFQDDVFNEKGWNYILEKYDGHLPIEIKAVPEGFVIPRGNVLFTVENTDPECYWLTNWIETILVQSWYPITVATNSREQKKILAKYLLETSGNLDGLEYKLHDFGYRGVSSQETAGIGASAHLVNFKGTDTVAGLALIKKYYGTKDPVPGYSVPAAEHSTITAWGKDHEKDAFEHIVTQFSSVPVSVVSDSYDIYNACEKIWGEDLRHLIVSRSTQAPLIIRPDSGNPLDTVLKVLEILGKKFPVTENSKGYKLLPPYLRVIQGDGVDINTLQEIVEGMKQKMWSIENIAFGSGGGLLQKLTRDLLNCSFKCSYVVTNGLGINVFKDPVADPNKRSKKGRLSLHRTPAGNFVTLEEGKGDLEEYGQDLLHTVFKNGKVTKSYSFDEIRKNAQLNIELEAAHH
UniProt Q99KQ4: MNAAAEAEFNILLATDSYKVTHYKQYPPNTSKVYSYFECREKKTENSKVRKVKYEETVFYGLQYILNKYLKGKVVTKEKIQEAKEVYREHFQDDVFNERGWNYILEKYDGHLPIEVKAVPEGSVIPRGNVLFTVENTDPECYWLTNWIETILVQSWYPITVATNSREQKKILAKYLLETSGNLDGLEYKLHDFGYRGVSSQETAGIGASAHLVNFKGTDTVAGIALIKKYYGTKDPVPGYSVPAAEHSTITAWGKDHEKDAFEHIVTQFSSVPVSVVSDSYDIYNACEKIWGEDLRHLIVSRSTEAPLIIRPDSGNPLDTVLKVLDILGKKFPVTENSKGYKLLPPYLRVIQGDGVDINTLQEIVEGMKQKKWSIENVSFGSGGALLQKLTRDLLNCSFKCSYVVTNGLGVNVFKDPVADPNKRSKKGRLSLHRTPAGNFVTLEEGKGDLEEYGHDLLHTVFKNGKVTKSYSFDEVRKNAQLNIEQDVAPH

The target of the assay is T1, HA-tagged A1BG (UniProt P04217).
T1 sequence: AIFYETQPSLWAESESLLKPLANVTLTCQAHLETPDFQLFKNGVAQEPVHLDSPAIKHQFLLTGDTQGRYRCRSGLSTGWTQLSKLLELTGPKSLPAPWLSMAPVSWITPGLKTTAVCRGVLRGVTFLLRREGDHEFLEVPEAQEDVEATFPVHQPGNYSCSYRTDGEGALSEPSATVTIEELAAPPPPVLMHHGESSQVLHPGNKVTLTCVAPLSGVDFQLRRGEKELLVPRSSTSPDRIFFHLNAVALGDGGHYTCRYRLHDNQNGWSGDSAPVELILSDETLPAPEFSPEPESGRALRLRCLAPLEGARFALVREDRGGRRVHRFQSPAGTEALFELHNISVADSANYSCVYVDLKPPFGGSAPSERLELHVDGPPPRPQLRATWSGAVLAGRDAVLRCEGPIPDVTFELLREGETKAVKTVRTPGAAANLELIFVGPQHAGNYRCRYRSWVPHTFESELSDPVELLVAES
Put plainly: affinity purification with mass spectrometry; anti-HA immunoprecipitates from MNNG, U2OS and K7M2 cells overexpressing HA-tagged A1BG; IgG groups as control; SDS-PAGE, silver staining, mass spectrometry.

Results are given in words; binding and its absence hold for the method and conditions named. Binding seen in cells or lysates may run through a third protein. A yes stands for co-enrichment or nearness to the bait. Other partners may have been found. Sequences can lack the tags named with a protein.

In the case of “nicotinamide phosphoribosyltransferase (NAMPT), human, endogenous (from UniProt P43490 1-491) (enzyme)”, the binding result is reported as “binds”.

Turning to “nicotinamide phosphoribosyltransferase (NAMPT), mouse, endogenous (from UniProt Q99KQ4 1-491) (enzyme)”, the binding result was “binds”.
